The text below walks through data of paper doi:10.1101/2023.11.06.565834.

No constants are given. Whether binding was seen depends on the method and setting. Binding seen in cells or lysates may run through a third protein. Some results given as binding are weak or reduced against the parent protein; the word gives no strength. Tags and fused reporters may be left off the sequences shown.

To fix the notation:
B1: His-MBP PLK4 PBD (571-970 residues) (domain or fragment, UniProt O00444 571-970)
chain: SKTRGMEPPWGYQNRTLRSITSPLVAHRLKPIRQKTKKAVVSILDSEEVCVELVKEYASQEYVKEVLQISSDGNTITIYYPNGGRGFPLADRPPSPTDNISRYSFDNLPEKYWRKYQYASRFVQLVRSKSPKITYFTRYAKCILMENSPGADFEVWFYDGVKIHKTEDFIQVIEKTGKSYTLKSESEVNSLKEEIKMYMDHANEGHRICLALESIISEEERKTRSAPFFPIIIGRKPGSTSSPKALSPPPSVDSNYPTRERASFNRMVMHSAASPTQAPILNPSMVTNEGLGLTTTASGTDISSNSLKDCLPKSAQLLKSVFVKNVGWATQLTSGAVWVQFNDGSQLVVQAGVSSISYTSPNGQTTRYGENEKLPDYIKQKLQCLSSILLMFSNPTPNFH
B2: His-MBP PLK4 PBD double mutant K685/711A (domain or fragment, UniProt O00444 571-970)
chain: SKTRGMEPPWGYQNRTLRSITSPLVAHRLKPIRQKTKKAVVSILDSEEVCVELVKEYASQEYVKEVLQISSDGNTITIYYPNGGRGFPLADRPPSPTDNISRYSFDNLPEKYWRAYQYASRFVQLVRSKSPKITYFTRYAACILMENSPGADFEVWFYDGVKIHKTEDFIQVIEKTGKSYTLKSESEVNSLKEEIKMYMDHANEGHRICLALESIISEEERKTRSAPFFPIIIGRKPGSTSSPKALSPPPSVDSNYPTRERASFNRMVMHSAASPTQAPILNPSMVTNEGLGLTTTASGTDISSNSLKDCLPKSAQLLKSVFVKNVGWATQLTSGAVWVQFNDGSQLVVQAGVSSISYTSPNGQTTRYGENEKLPDYIKQKLQCLSSILLMFSNPTPNFH
B3: His-MBP PLK4 CPB (571-820 residues) (domain or fragment, UniProt O00444 571-820)
chain: SKTRGMEPPWGYQNRTLRSITSPLVAHRLKPIRQKTKKAVVSILDSEEVCVELVKEYASQEYVKEVLQISSDGNTITIYYPNGGRGFPLADRPPSPTDNISRYSFDNLPEKYWRKYQYASRFVQLVRSKSPKITYFTRYAKCILMENSPGADFEVWFYDGVKIHKTEDFIQVIEKTGKSYTLKSESEVNSLKEEIKMYMDHANEGHRICLALESIISEEERKTRSAPFFPIIIGRKPGSTSSPKALSPPP
B4: His-MBP PLK4 PBD E774* mutant (domain or fragment, UniProt O00444 571-773)
chain: SKTRGMEPPWGYQNRTLRSITSPLVAHRLKPIRQKTKKAVVSILDSEEVCVELVKEYASQEYVKEVLQISSDGNTITIYYPNGGRGFPLADRPPSPTDNISRYSFDNLPEKYWRKYQYASRFVQLVRSKSPKITYFTRYAKCILMENSPGADFEVWFYDGVKIHKTEDFIQVIEKTGKSYTLKSESEVNSLKEEIKMYMDHAN
B5: His-MBP PLK4 L2+PB3 (814-970 residues) (domain or fragment, UniProt O00444 814-970)
chain: KALSPPPSVDSNYPTRERASFNRMVMHSAASPTQAPILNPSMVTNEGLGLTTTASGTDISSNSLKDCLPKSAQLLKSVFVKNVGWATQLTSGAVWVQFNDGSQLVVQAGVSSISYTSPNGQTTRYGENEKLPDYIKQKLQCLSSILLMFSNPTPNFH
B6: His-MBP PLK4 PBD Δ774-813 (domain or fragment, UniProt O00444)
chain: SKTRGMEPPWGYQNRTLRSITSPLVAHRLKPIRQKTKKAVVSILDSEEVCVELVKEYASQEYVKEVLQISSDGNTITIYYPNGGRGFPLADRPPSPTDNISRYSFDNLPEKYWRKYQYASRFVQLVRSKSPKITYFTRYAKCILMENSPGADFEVWFYDGVKIHKTEDFIQVIEKTGKSYTLKSESEVNSLKEEIKMYMDHANKALSPPPSVDSNYPTRERASFNRMVMHSAASPTQAPILNPSMVTNEGLGLTTTASGTDISSNSLKDCLPKSAQLLKSVFVKNVGWATQLTSGAVWVQFNDGSQLVVQAGVSSISYTSPNGQTTRYGENEKLPDYIKQKLQCLSSILLMFSNPTPNFH

The test addresses T1, GST-CEP152 domain 1 (D1, residues 1-512) (human) (UniProt O94986).
T1 sequence: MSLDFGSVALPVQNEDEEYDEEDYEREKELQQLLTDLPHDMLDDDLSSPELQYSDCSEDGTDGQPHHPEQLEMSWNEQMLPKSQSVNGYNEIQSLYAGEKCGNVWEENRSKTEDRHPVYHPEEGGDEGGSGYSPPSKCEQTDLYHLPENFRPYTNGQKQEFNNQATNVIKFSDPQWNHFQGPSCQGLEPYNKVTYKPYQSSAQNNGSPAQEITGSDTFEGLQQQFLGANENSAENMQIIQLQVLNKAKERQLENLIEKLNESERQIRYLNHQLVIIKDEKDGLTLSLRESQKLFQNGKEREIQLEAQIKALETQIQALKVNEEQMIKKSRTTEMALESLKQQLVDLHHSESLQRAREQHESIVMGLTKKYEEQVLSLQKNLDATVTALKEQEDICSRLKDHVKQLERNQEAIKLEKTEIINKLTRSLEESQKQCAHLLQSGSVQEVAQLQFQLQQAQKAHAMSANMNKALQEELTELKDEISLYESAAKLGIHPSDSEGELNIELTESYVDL
Put plainly: pull-down.
As for B1, the binding result is reported as “binds”.
As for B2, the binding entry is given as “no binding”.
As for B3, the binding result is recorded as “binds”.
On to B4, for which the binding entry is on record as “no binding”.
The value for B5 was “no binding”.
As to B6, the binding entry was “no binding”.
